# Primary screen of a compound library

The filed quantity is “Percent Effect” (%). The controls that fix the scale are not given in the record; negative values are as filed. Compounds were drawn at random from those tested, without regard to their results. Two or more numbers in one place are separate tests of the same structure; such repeats can differ widely.

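Viability assay of Plasmodium falciparum sporozoites; the read-out is not stated. The concentration is filed as 10 mM, unlikely as a test dose, so the dose is not known. The record gives no direction; compounds that gave an IC50 in retests scored well above the rest, so higher reads as lower viability. Strong results were mostly tested again. About 34,000 compounds were tested under these conditions; 0.84% (about 280) showed 50% or more at least once.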

compound	effect
CCOc1nnc(CN(Cc2ccccc2)CC(O)c2ccco2)s1 (stereo not shown)	4.561
O=C(CN1CCC(c2ccnn2CCO)CC1)NC1CCCC1	3.122
CNC(=O)c1cccnc1NCCOc1ccccc1	4.852
NC(=O)C1CCCCN1C(=O)c1ccc(Br)s1 (stereo not shown)	-8.487
Cc1nnc(N2CCOC(Cn3cccn3)C2)c(C#N)c1C (stereo not shown)	7.42
CC(C)(NC(=O)Nc1cnn(CC2CCCO2)c1)c1nccs1 (stereo not shown)	-4.94
O=C(O)C(F)(F)F.O=C(O)C(F)(F)F.c1cncc(COCc2nnc3n2CCN(Cc2ccsc2)C3)c1	-4.144
CCc1nnc(CNCC2CCN(CC(O)c3ccccc3)CC2)o1 (stereo not shown)	15.04
O=C(NC1CC1)c1cc(C2CCCN(Cc3ccccn3)C2)no1 (stereo not shown)	8.694
Cc1ccc(F)c(-n2nnc(C(=O)O)c2-c2ccncc2)c1	-1.691
CC(C)NC(=O)c1sccc1N(C)S(=O)(=O)c1ccc(Cl)cc1	-8.906
COc1cc(CNCc2c(C(C)C)nn(C)c2N(C)C)ccn1	10.06
Cn1cnnc1C1CCCN(C(=O)c2n[nH]c3ccccc23)C1 (stereo not shown)	9.249
Cc1ccc2c(c1)c(CNC(=O)C1CCN(C(C)C)CC1)nn2C	-3.412
COCC1COCCC12CCN(S(=O)(=O)c1ccc(C)cc1)CC2 (stereo not shown)	-2.825
CCc1noc(C(C)N2CCN(CC)CC2)n1 (stereo not shown)	1.38
CCN(CC)C1CCN(C(=O)c2cc(-n3cccn3)ccc2Cl)CC1	1.705
Cc1noc(C)c1CN1CCc2ncnc(-c3ccoc3)c2CC1.O=C(O)C(F)(F)F	13.05
[H][C@]12CCC[C@@]1(COCc1ccccn1)CN(C(=O)c1cscn1)C2	8.776
COc1cccc2c1OCC(CNC(=O)CCCN1CCOCC1)C2 (stereo not shown)	-9.227
CC(C)CN1CCCn2nc(CNC(=O)CCCc3cn[nH]c3)cc2C1	1.502
CN1CCC2(C=C(C(=O)N(C)C)c3ccccc32)CC1	7.531
[H][C@@]12OCCN(C(=O)CC3=CCCCC3)[C@@]1([H])CC[C@H]2OCC	-6.079
[H][C@]12CCNC[C@@]1([H])OCCN(C(=O)c1ccco1)C2	16.07
Cc1cnn(CC2CCCN2Cc2cc(C)on2)c1 (stereo not shown)	8.75
CNc1nc(CNC(=O)Nc2cccc(Cl)c2Cl)cs1	0.1655
CC(C)c1nnc(NC(=O)NCc2ccc(CO)c(F)c2)s1	-1.671
Cc1ccc(NC2CCN(C(=O)c3ccc4c(c3)CCC4)CC2)nn1	-0.1952
Cc1nn(C)c(C)c1C(C)NCc1ccc(OC(C)C)cc1 (stereo not shown)	2.105
O=C(O)C(F)(F)F.[H][C@@]12COC[C@]1([H])[C@@H](OCC1CCOCC1)CN2Cc1ccoc1	12.08
COc1ccccc1N1CCC(NCc2c(C)noc2C)C1 (stereo not shown)	-3.86
CC(C)Nc1nc(N2CCOCC2)nc2c1CN(Cc1ccoc1)CC2	-13.96
NC(=O)N1CCC2(CC1)CN(Cc1cccnc1)C(=O)CO2.O=C(O)C(F)(F)F	0.5796
CC(Cc1ccco1)NC(=O)Nc1ccc(N2CCCC2)nc1 (stereo not shown)	4.767
O=C1CCC2(CCCN(C(=O)Cc3cccs3)C2)N1 (stereo not shown)	-7.357
COCCN1CCOCC12CCN(C(=O)c1cccnc1)CC2.O=C(O)C(F)(F)F	-15.34
CC(C)c1noc(C2CCCN2S(=O)(=O)Cc2ccc(F)cc2)n1 (stereo not shown)	-9.091
CCc1ncc(C(=O)N2CCCC2Cn2cccn2)s1 (stereo not shown)	13.06
CC(C)c1nnc2n1CCN(C(=O)c1ccc(CN(C)C)cc1)C2	-15.72
CN1CCN(CC2CC2)C(=O)c2cnc(N3CCOCC3)nc21	-1.27
Cc1cccnc1NC(=O)NCc1cccnc1OC(C)C	3.567
CCc1ccc(CN2CCNC(C(=O)N3CCN(C)CC3)C2)o1 (stereo not shown)	-8.246
CCS(=O)(=O)N1CCc2c(cnc(-c3cccnc3)c2C(=O)O)C1	-14.6
CCCc1nc(C)c(C(=O)NC2CCN(c3ncccn3)CC2)s1	0.8881
O=C1CCCCN1CCc1nc(C2(c3ccc(F)cc3)CCOC2)no1 (stereo not shown)	1.644
CN1CCC2(COCc3cnc(N4CCOCC4)nc32)C1.O=C(O)C(F)(F)F (stereo not shown)	-18.64
Cc1ccc(S(=O)(=O)N(C)c2ccsc2C(=O)NCC(C)C)cc1	-1.164
CCS(=O)(=O)N1CCc2cc(C(=O)N(C)C)c(NCC3CC3)nc2CC1	0.614
CN(C)CC1(O)CCN(S(=O)(=O)c2ccc(F)c(F)c2)C1 (stereo not shown)	-1.066
CCc1cnc(C)nc1NCCN1CCCCCC1	-4.144
O=C(O)C(F)(F)F.[H][C@]12CCN(c3cncnc3)C(=O)[C@]1([H])CN(Cc1ccccn1)C2	-12.52
O=C(Nc1nncs1)NC1CCc2ccccc21 (stereo not shown)	4.397
COCCN(CC1CCCN(C2Cc3ccccc3C2)C1)C(=O)CO (stereo not shown)	4.788
Cc1ccc(-c2cc(CNC(=O)N3CCOC(C)C3)on2)cc1 (stereo not shown)	6.099 and -5.756 and -1.356
CCn1ncc2c1CCCC2NCc1csc(COC)n1 (stereo not shown)	-19.65 and -19.45
C=C(C)COc1ccccc1C(=O)NCCc1nncn1C	4.973
CCOCCCn1c(NC(=O)c2cnn(C)c2)nc2ccccc21	-6.051
Cc1cc(C)cc(CNC(c2ccccc2)c2nccn2C)c1 (stereo not shown)	-6.166
Cc1ccc(NC(=O)C2CSCN2C(=O)c2cnsn2)c(C)c1 (stereo not shown)	7.913
Cc1nc(CN2C(=O)CCC23CCN(Cc2ccccn2)CC3)cs1.O=C(O)C(F)(F)F.O=C(O)C(F)(F)F	-22.69 and 5.228 and -26.62
c1coc(-c2nnc(CN3CCCC(CN4CCCCCC4)C3)o2)c1 (stereo not shown)	-0.3382
CCSCCn1cc(-c2nccs2)nn1	-13.38
Cc1cc(NC(=O)NCC(C(C)C)N2CCOCC2)n(C)n1 (stereo not shown)	-1.576 and -6.248 and 2.436
Cc1cc(OCC(O)c2nc3c([nH]2)CC(C)(C)CNC3=O)ccc1Cl (stereo not shown)	5.403
CCc1nc(CCNC(=O)Nc2cccc(C(=O)NC)c2C)cs1	2.941
O=C(NCCCn1ccnc1)N1CCCC1c1cccs1 (stereo not shown)	9.662
COc1cccc(-c2nc(CNC(C)Cn3cccn3)cs2)c1 (stereo not shown)	-2.236 and -25.86 and -30.18
O=C(c1ccncc1)N1CCc2ncnc(C3CCOC3)c2CC1 (stereo not shown)	-7.552
CC(C)c1nc(CN(C)C2CCN(CCS(C)(=O)=O)C2)no1 (stereo not shown)	-1.728
O=C(NC[C@@H]1CCCN1)c1cc(COc2cccc(C(F)(F)F)c2)[nH]n1	-4.255
CN(C)CCN1CCOCC2(C1)CN(Cc1ccco1)CCO2.O=C(O)C(F)(F)F.O=C(O)C(F)(F)F.O=C(O)C(F)(F)F (stereo not shown)	-4.08
CCOC1COC2(CCN(Cc3cccc(F)c3)CC2)C1.O=C(O)C(F)(F)F (stereo not shown)	6.103
Cn1ccnc1C(=O)N1CCOC(Cc2ccc(Cl)cc2)C1 (stereo not shown)	-9.644
Cc1cc(C(=O)NC(C)Cc2ccc(N(C)C)cc2)n(C)n1 (stereo not shown)	-6.834
O=C(O)C(F)(F)F.[H][C@]12CN(c3ncccn3)C[C@@]1(C(=O)O)CCCN(C1CCOC1)C2 (stereo partly shown)	15.94
COc1ccc(C(=O)NS(=O)(=O)c2cncc(Br)c2)cc1OC	-13.06
CCOCCN1CCN(CCc2nc3ccccc3c(=O)[nH]2)CC1	-16.69
O=S(=O)(CC1CCCO1)Nc1cc(Cl)ccc1-n1cccn1 (stereo not shown)	4.824
Cn1ccc(CS(=O)(=O)Cc2ccccc2)cc1=O	-3.403
O=C(O)C(F)(F)F.O=C1CC(c2ccccc2)C2(CCN(Cc3nccs3)CC2)N1 (stereo not shown)	-4.874
CC(=O)N1CCCn2nc(CNc3cc(C)ncn3)cc2C1	3.638
O=C(C(O)c1ccccc1Cl)N1CCCN(Cc2cccnc2)CC1 (stereo not shown)	-7.135
Nc1cc(N2CCCC2c2cnccn2)ncn1 (stereo not shown)	-9.834
CN(C)C(=O)c1ccc2ccc(N3CCN(CC4CC4)CC3)n2c1	7.093
COc1ccccc1S(=O)(=O)N1CCC(Oc2cccnn2)CC1	-4.368

Repeated from the top, 6 entries:

compound	effect
CCOc1nnc(CN(Cc2ccccc2)CC(O)c2ccco2)s1 (stereo not shown)	4.561
O=C(CN1CCC(c2ccnn2CCO)CC1)NC1CCCC1	3.122
CNC(=O)c1cccnc1NCCOc1ccccc1	4.852
NC(=O)C1CCCCN1C(=O)c1ccc(Br)s1 (stereo not shown)	-8.487
Cc1nnc(N2CCOC(Cn3cccn3)C2)c(C#N)c1C (stereo not shown)	7.42
CC(C)(NC(=O)Nc1cnn(CC2CCCO2)c1)c1nccs1 (stereo not shown)	-4.94

Source: ChEMBL document CHEMBL3988442, “University of Dundee, Small-Polar-MMV Screening Library” (2021).